The source of these data is patent US9745328B2, “Flap modulators” (JANSSEN PHARMACEUTICA NV, priority 2013, dated 2017).

Sequences of proteins named here, by UniProt entry; tags and fusion partners are left off. A change or cut given only in a name is not applied to a line headed by its entry.
UniProt P20292: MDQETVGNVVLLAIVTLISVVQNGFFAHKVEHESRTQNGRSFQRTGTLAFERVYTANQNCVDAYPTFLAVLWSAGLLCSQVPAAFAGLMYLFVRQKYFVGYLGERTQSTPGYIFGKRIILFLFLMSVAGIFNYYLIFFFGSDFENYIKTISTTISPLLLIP

This assay deals with human FLAP (Homo sapiens (Human), UniProt P20292). The assay is described as follows: FLAP binding assay (HTRF format). The conditions noted are these: Table 6 (additional runs), human FLAP wild type. Here is the method: The ability of the compounds of the present invention to treat a FLAP-mediated disease and/or disorder, or associated symptoms or complications thereof, was determined using the following procedures. Binding assay data represent the average value obtained from two different assay plates, with samples run in duplicate on each plate. Human whole blood assay data represent a single replicate on an assay plate using whole blood from at least one healthy donor.
Data are expressed as a HTRF ratio.

Structures can show the parent of a compound that is named as a salt.

As usually defined, the Ki is a measure of affinity in units of concentration, obtained from inhibition or displacement. Lower therefore signals a stronger hold on the target.

As for `CC(=O)NC1CCN(S(=O)(=O)Cc2ccccc2-c2ccc(-c3cnc(N)cn3)c(F)c2)CC1` [Example 233, N-[1-({[4′-(5-Aminopyrazin-2-yl)-3′-fluorobiphenyl-2-yl]methyl}sulfonyl)piperidin-4-yl]acetamide formate salt], the Ki was found to be 636 nM.
